Laboratory results taken from PubChem BioAssay AID485353 (National Center for Advancing Translational Sciences (NCATS), 2010).
Hit rate of the full screen: of about 330,000 compounds, about 610 (0.18%) were called active. Inconclusive results, whose numbers are uncertain, are shown with a selection of clear calls. Calls come from the whole dose curve. Potencies beside an inconclusive call are fits to weak or partial responses and may not hold up.

assay: qHTS of Yeast-based Assay for SARS-CoV PLP; note: nearly all actives have a fitted effect of over 55% in size; for activity, positive = growth rescue: 0% is about no effect; details: S. cerevisiae expressing SARS-CoV PLpro; Potency: growth rescue; activity, positive = growth rescue: at 32.9 µM (top of the series)
Potency is the fitted concentration of half-maximal effect.

Structure (SMILES) | activity, positive = growth rescue | Potency
Cc1[nH]c2ccccc2c1CC(=O)O | inactive: 0.647% | –
C/C(=N\NC(=O)c1c(Cl)cnn1C)c1ccc(NC(=O)c2ccc(Br)o2)cc1 | – | inconclusive: 2.51 µM [activator, full curve, poor fit]
O=C(CCNS(=O)(=O)c1ccc(Br)cc1)N1CCCCCCC1 | – | inconclusive: 20 µM [activator, single point]
COC(=O)CSc1nnc(NC(=O)CCc2ccccc2)s1 | – | inconclusive: 3.98 µM [activator, full curve]
CCCn1nc(C(=O)NNC(=O)CCCOc2ccc(C)cc2)c2ccccc2c1=O | – | inconclusive: 20 µM [activator, single point]
Cc1ccccc1CNC(=O)C(=O)NCC1OCCCN1S(=O)(=O)c1cccs1 (stereo not given) | inactive: -0.637% | –
Cc1cc(C(=O)OCC(=O)NCCc2ccccc2)c(C)o1 | – | inconclusive: 3.55 µM [activator, single point]
CC(C)c1ccc(/C=N/N2CCN(c3ccccn3)CC2)cc1 | inactive: -0.458% | –
NNC(=O)c1cc2ccccc2cc1O | – | inconclusive: 5.01 µM [activator, partial curve]
O=C(NCc1cccnc1)c1ccc(CN2CCc3ccccc3C2)cc1 | – | inconclusive: 2 µM [activator, partial curve, poor fit]
CCCC[C@@H]1CNCCN1CCc1cc(C(F)(F)F)cc(C(F)(F)F)c1 | inactive: -7.43% | –
COc1ccc(CNC(=O)CS(=O)(=O)Cc2nc(-c3ccc(OC)cc3)oc2C)cc1 | – | inconclusive: 3.98 µM [activator, single point]
COc1ccc(NC(=O)CSc2nnc(Cc3cccn3C)n2-c2ccc(F)cc2)cc1OC | inactive: -6.32% | –
O=[N+]([O-])c1cccc(S(=O)(=O)NCCCn2ccnc2)c1 | – | inconclusive: 20 µM [activator, single point]
COc1ccc(Nc2ncnc3ccc([N+](=O)[O-])cc23)c(OC)c1 | inactive: 0.484% | –
CCn1cc(C(=O)O)c(=O)c2cc(F)c(N3CCN(S(=O)(=O)c4ccc(NC(=O)OC)cc4)CC3)cc21 | – | inconclusive: 20 µM [activator, single point]
CN(C)CCNC=C(C(=O)Nc1ccc(Cl)cc1Cl)C(=O)Nc1ccc(Cl)cc1Cl | inactive: -12.5% | –
O=C(CS(=O)(=O)c1ccccc1)c1ccc2c(c1)OCCO2 | – | inconclusive: 14.1 µM [activator, single point]
O=C1NCC(COc2ccc([N+](=O)[O-])cc2)O1 (stereo not given) | inactive: -2.11% | –
CCCCN(C(=O)CSc1nnc(-c2ccc(OC)cc2)n1CC)c1c(N)n(Cc2ccccc2)c(=O)[nH]c1=O | – | inconclusive: 17.8 µM [activator, single point]

Already shown: 2 of the compounds above.
Structure (SMILES) | activity, positive = growth rescue | Potency
Cc1[nH]c2ccccc2c1CC(=O)O | inactive: 0.647% | –
C/C(=N\NC(=O)c1c(Cl)cnn1C)c1ccc(NC(=O)c2ccc(Br)o2)cc1 | – | inconclusive: 2.51 µM [activator, full curve, poor fit]
